These are yes or no findings as the source states them, for the method shown. In cells and extracts the contact can be indirect. A yes stands for co-enrichment or nearness to the bait. Other partners may have been found.

Protein sequences, listed by entry. Tags and fused reporters are not part of them.
UniProt Q10658: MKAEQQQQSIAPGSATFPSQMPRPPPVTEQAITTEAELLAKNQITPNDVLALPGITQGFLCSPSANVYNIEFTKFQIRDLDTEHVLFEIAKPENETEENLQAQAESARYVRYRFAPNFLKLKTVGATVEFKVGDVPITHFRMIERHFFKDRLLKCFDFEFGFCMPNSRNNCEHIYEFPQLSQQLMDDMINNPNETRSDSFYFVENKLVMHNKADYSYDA

The target of this assay is UNC-119::GFP (unc-119::gfp knock-in) (C. elegans) (UniProt Q10658). In words: affinity purification with mass spectrometry.

B1: UNC-33 (CRMP) (protein, UniProt Q01630 1-854)
chain: MFPFLAPIRSANHVEQQGTKYYVEITFLADSPYSRAPSSTGTEKSVIPTLRNLDDLETVSNKSRSSEGVNKLGSRPNSRSSAIVKKTSVSSLPTSARSEGKSSPIPVKDAIPAPARHKNKGLEMSSAMMELFGGGGSTSPAPSKRENPADAPSDRVVSNAKLSQPGPEWFEGFEQMDMTDIELPPDPNCPAEKVLRGEKSTPDFDSDWQEAKEDVLDPQSYPKSFNPAESLPGPDIGAGVDDEEEPEAEAQEMEEPQYESKVDEKDDDDNGSSSSKKGHPSEDGDSTRNGETPTDRRNSGAIEETADGESSAQSAAEKKNSGDDGNGGGGEMSILLVKNAQIVNDDAIFVADILIEDGIIQNVAPNLEAPEGAEVLDAAGKLALPAGIDVYTQVTDSSVDDLSTGCKSAIAGGTGTIVEVVRPRGAESVVSAVKRVKNQLEKSGISCHVALSVAITDFCEQEMSELVKNEGINSFVLDGVSLTDDKLLELFEHVKRLGALIRVVPENKSIVAMLEKKMLKLGVTGPEGFPQSRPESLEADRVSGVCVLGNLASCPISIVQVSSADSLAAIEKARASGALAHAEIASAAVTADGSALFSQDLRFASAHLTDVPLRRGAPDRMIGALSTQPLVVCTSGHRPVNSATRVAAKDFAIAQKGSTGAEERMAVVWERAVRSGRIDAMRFVAVTSTNAAKMFNMYPKKGRIAVGADADLVIWDASGKRVLESSRAQSSQENSMYDGLTVHSVVTATIVGGKIAYQNGEVREAPVAGGFLRLSPNSPYLFSMVGQRDKFANVERVEREASSQQQKPQQNGHHKNSGDFDRNRTKVMESSIDFGGSAANRPRNPPGGRTTGFW
For the molecule B1, the binding result was “binds”.
